Assay results published in article PMC5052522.

What was measured:
[1] = target: T1, C-reactive protein (CRP standard protein, recombinant) (human) (UniProt P02741); assay: capture of aptamer-FAM PBMCs on immobilized CRP in microfluidic channel; settings: diluted heparinized blood, RBC excluded; commercial protein; label: 5'-biotin, 3'-FAM (5-carboxyfluorescein); single-stranded DNA
T1 sequence (looked up, limits assumed): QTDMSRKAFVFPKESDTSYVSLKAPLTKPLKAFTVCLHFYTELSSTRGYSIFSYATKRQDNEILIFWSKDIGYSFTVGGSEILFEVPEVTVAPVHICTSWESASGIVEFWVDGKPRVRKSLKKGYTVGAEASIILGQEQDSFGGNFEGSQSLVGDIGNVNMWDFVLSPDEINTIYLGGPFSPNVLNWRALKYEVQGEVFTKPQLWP

[2] = target: T1, C-reactive protein (CRP standard protein, recombinant) (human); assay: cited range; settings: commercial protein; label: 5'-biotin; single-stranded DNA
[3] = target: T1, C-reactive protein (CRP standard protein, recombinant) (human); assay: capture by aptamer-conjugated PBMCs, sandwich fluorescence; settings: commercial protein, label: 5'-biotin, single-stranded DNA

Row | Sequence | binding result [1] | binding result [2] | binding result ([3]; CRP preincubated with 10 mM CaCl2, CRP 0-30 mg/L, LOD 0.05 mg/L) | binding result ([3]; no added Ca2+, signal at least 20 times lower than CRP/Ca2+)
1 | GGCAGGAAGACAAACACACAAGCGGGTGGGTGTGTACTATTGCAGTATCTATTCTGTGGTCTGTGGTGCTGT [CRP ssDNA aptamer, 72-mer, 5'-biotin, 3'-FAM] | binds | – | – | –
2 | GGCAGGAAGACAAACACACAAGCGGGTGGGTGTGTACTATTGCAGTATCTATTCTGTGGTCTGTGGTGCTGT [CRP ssDNA aptamer, 72-mer, 5'-biotin] | – | binds | binds | binds more weakly

The exact form of at least one protein or probe is not confirmed. For some of these results: The comparison behind a weaker result is the experiment's own reference, which may not be listed here. At least one verdict was read from the data and is not stated in words by the source. Tags and fusion partners may be left off the protein sequences shown.
